# Patent publication US20230128889A1, “REL/RELA/SPOT SMALL MOLECULES MODULATORS AND SCREENING METHODS” (priority 2020, published 2023)
# System: RelTt^NTD6/287
# Assay: smFRET of RelTt^NTD6/287 in the presence of nucleotides
# Parameters: species or system T. thermophilus
# Conditions: RelTt^NTD6/287, dyes at positions 6 and 287
row,Compound,FRET-averaged inter-dye distance RDA E
1,"Nc1nc2c(ncn2[C@@H]2O[C@H](COP(=O)(O)OP(=O)(O)O)[C@@H](OP(=O)(O)OP(=O)(O)O)[C@H]2O)c(=O)[nH]1 [ppGpp, guanosine 5′,3′ bispyrophosphate]",64 Å
2,Nc1nc2c(ncn2[C@@H]2O[C@H](COP(=O)(O)OP(=O)(O)O)[C@@H](O)[C@H]2O)c(=O)[nH]1 [GDP],70 Å
3,Nc1ncnc2c1ncn2[C@@H]1O[C@H](COP(=O)(O)CP(=O)(O)OP(=O)(O)O)[C@@H](O)[C@H]1O [APCPP],remained in the closed conformation
